Results from US20190183997A1.
These are yes or no findings as the source states them, for the method shown. Some binding calls cover weakened binding; strength is not graded here.

The chains behind the UniProt entries cited, without tags or fusion partners. Residues count along the entry.
UniProt Q8I0U8, residues 1607-1699: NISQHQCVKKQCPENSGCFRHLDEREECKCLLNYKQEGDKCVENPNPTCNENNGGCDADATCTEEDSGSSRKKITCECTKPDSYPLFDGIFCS

B1: Human malaria antigen MSP1-specific IgM clone A8P2-B7 (antibody, V domains shown)
VH: QVQLQQWGAGLLKPSETLSLTCAVYGGSFSGYYWTWIRQPPGKGLEWIGEINNSGKTNYNPSLKSRVSISIDTSKNQFSLKVTSVTAADTAVYYCARGPQQHLEPPFDYWGHGTLVTVSS
VL: QSVLTQPPSASGTPGQRVTISCSGSNSNIATNYVCWYQQYPGTAPKPLIYRTDQRPSGVPDRFSGSKSGTSASLAISGLRSEDEADYYCATWDDSLSAWVFGGGTKLTVL
B2: Human malaria antigen MSP1-specific IgM clone A8P3-E4 (antibody, V domains shown)
VH: QVQLQESGPGLVKPSETLSLTCSVSGGSISNSYVSWIRQPPGKGLEWIGYIYYSGGTNYNPSLKSRVTISVDTSKNQFSLKLSSVTAADTAVYYCARGKIYFDYWGQGTLVTVSS
VL: DIQMTQSPSTLSASVGDRVTITCRASQSISSWLAWYQLKPGKAPKLLIYKASSLESGVPSRFSGSGSGTEFTLTISSLQPGDFATYYCQQYNSYALAFGQGTKVEIK
B3: Human malaria antigen MSP1-specific IgG clone A8P3-C10 (antibody, V domains shown)
VH: EVQLLESGGALVQPGGSLRLSCVTSGFTFSSYAMTWVRQAPGKGLEWVSGISSGGFITYYADSVKGRFTISRDNSKNTVYLQMNSLRAEDTALYYCAKGMGSNIYVGFDYWGQGTLVTVSS
VL: EIVLTQSPGTLSLSPGERATLSCRASQIVSSNYLAWYQQKPGQAPRLLIFGASSRATGIPDRFSGSGSDTDFTLTIRRLESEDFAVYYCHQYGSSPGTFGQGTKVEIK

biological target: MSP1-19 protein from P. falciparum (3D7) (Plasmodium falciparum (3D7)) (UniProt Q8I0U8); test: specificity label of the clone; AMA/MSP1 tetramer sorting and ELISA of recombinant mAbs (Example 2)

binding, binds:
B1, B2, B3
